Data from patent publication US20190203248A1 (Bristol-Myers Squibb, published 2019).
These are yes or no findings as the source states them, for the method shown. Some binding calls cover weakened binding; strength is not graded here.

Sequences of proteins named here, by UniProt entry; tags and fusion partners are left off. A change or cut given only in a name is not applied to a line headed by its entry. Residues count along the entry.
UniProt P02768: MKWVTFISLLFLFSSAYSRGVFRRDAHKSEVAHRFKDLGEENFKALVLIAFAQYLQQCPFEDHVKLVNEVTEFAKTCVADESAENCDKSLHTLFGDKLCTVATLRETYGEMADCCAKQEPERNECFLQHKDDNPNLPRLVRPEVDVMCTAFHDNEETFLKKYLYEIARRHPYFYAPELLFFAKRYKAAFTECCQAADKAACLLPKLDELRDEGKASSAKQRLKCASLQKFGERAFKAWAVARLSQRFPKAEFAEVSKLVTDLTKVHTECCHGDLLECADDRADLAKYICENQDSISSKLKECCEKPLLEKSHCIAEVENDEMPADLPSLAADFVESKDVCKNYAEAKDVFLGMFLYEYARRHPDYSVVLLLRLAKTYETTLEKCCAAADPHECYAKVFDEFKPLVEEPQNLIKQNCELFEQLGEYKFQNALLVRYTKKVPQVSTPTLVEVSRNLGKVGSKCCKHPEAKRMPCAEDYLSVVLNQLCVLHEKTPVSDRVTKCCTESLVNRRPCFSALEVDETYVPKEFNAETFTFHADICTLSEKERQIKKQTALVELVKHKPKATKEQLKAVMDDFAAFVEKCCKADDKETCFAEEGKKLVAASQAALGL
HSA-domain I-II construct: residues 25-411 of P02768
UniProt Q28522, residues 17-600: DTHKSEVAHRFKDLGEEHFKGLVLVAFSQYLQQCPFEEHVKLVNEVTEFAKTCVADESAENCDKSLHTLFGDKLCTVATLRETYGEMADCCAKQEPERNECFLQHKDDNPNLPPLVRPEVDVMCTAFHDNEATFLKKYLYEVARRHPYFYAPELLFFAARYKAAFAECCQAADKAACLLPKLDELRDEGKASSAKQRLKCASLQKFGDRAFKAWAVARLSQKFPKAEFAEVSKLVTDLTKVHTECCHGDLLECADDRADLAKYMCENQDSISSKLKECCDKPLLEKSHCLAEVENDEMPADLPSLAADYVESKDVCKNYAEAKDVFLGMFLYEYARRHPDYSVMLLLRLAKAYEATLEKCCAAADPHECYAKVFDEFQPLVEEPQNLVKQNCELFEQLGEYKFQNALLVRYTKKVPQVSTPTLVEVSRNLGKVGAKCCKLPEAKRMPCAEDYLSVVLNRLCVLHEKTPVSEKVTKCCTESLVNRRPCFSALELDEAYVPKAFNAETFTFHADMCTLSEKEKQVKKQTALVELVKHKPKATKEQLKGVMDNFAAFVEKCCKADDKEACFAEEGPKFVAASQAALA

Assays:
[1] = target: HSA-domain I-II construct (human) (UniProt P02768); experiment: Biacore (SPR), binding level in RU at 100 nM and 1000 nM on immobilized recombinant HuSA domain I & II fragment
rhesus serum albumin [2] = target: T1, rhesus serum albumin (rhesus, UniProt Q28522 17-600); experiment: comment in summary table
T1 construct: also called RhSA

human serum albumin = target: T2, human serum albumin (human, UniProt P02768 25-609); experiment: Biacore domain mapping, HSA immobilized
T2 construct: also called HSA; HuSA

rhesus serum albumin [3] = target: T1, rhesus serum albumin; experiment: SPR (Biacore), albumin immobilized on CM5 chip
[4] = target: HSA-domain I-II construct (human) (UniProt P02768); experiment: Biacore domain mapping, construct immobilized

B1: SABA1.2 (designed binder)
chain: MGVSDVPRDLEVVAATPTSLLISWHSYYEQNSYYRITYGETGGNSPVQEFTVPYSQTTATISGLKPGVDYTITVYAVYGSKYYYPISINYRTEIEDEDEDEDED
notes: also called core 1 10Fn3 comprising an (ED)5 extension
[1]
  binding: binds

B2: SABA4.1 (designed binder)
chain: MGVSDVPRDLEMVAATPTSLLISWEDDSYYSRYYRITYGETGGNSPVQEFTVPSDLYTATISGLKPGVDYTITVYAVTYDVTDLIMHEPISINYRTEIDKPSQHHHHHH
notes: His6-tagged Adnectin core 4; has a scaffold mutation; the scaffold-perfect version is SABA5
Rhesus serum albumin [2]
  binding: binds
Human serum albumin
  binding: binds
Rhesus serum albumin [3]
  binding: binds

B3: SABA2.1 (designed binder)
chain: MGVSDVPRDLEVVAATPTSLLISWPKYDKTGHYYRITYGETGGNSPVQEFTVPTRQTTATISGLKPGVDYTITVYAVSKDDYYPHEHRPISINYRTEIDKPSQHHHHHH
notes: His6-tagged Adnectin core 2
[4]
  binding: binds

B4: SABA1.1 (designed binder)
chain: MGVSDVPRDLEVVAATPTSLLISWHSYYEQNSYYRITYGETGGNSPVQEFTVPYSQTTATISGLKPGVDYTITVYAVYGSKYYYPISINYRTEIDKPSQHHHHHH
[4]
  binding: binds
